The values that follow come from article PMC6981194.

Sequences of proteins named here, by UniProt entry; tags and fusion partners are left off.
UniProt P46460: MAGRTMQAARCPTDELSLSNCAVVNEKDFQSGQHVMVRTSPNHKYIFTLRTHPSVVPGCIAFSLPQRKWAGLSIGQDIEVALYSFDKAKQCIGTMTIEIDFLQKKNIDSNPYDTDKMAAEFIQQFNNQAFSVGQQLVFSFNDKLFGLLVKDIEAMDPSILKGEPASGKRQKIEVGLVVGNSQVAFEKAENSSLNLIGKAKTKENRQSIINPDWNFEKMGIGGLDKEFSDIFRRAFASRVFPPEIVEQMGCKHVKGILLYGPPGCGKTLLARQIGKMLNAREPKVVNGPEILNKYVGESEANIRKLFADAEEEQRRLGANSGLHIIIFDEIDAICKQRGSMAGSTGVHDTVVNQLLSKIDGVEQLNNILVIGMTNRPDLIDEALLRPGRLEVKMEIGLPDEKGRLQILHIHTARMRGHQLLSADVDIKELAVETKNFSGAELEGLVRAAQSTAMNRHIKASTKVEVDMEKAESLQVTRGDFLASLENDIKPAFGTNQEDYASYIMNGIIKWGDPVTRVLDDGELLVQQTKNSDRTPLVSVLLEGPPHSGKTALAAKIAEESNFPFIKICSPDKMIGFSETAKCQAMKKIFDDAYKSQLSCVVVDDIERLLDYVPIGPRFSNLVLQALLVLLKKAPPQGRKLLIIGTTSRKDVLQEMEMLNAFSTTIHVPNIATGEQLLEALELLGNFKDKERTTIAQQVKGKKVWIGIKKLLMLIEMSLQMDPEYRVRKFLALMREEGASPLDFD

The assay concerns the target T1, acid-sensing ion channel 1a (ASIC1a), endogenous in mouse brain and cultured mouse cortical neurons (mouse (endogenous in brain and cortical neurons)) (UniProt Q6NXK8).
T1 sequence: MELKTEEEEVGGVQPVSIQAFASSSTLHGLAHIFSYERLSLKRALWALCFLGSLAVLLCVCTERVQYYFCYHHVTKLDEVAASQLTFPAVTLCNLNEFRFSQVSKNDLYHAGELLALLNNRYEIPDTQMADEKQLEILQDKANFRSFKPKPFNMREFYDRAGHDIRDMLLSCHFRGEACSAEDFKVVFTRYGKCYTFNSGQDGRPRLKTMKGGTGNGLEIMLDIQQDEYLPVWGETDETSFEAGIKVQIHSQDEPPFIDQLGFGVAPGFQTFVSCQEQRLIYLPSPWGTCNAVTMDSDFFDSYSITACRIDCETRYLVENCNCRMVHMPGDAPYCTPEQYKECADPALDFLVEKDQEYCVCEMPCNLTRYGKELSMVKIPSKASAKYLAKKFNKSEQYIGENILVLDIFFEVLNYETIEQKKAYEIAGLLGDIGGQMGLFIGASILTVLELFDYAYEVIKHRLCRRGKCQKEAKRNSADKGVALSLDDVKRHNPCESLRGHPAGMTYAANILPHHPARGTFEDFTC
Nature of the assay: affinity purification with mass spectrometry; immunoprecipitation with a polyclonal anti-ASIC1a antibody from contralateral and ischemic mouse brain hemispheres; SDS-PAGE, Coomassie blue, ~85 kDa band excised, trypsin digest, MALDI-TOF-MS.

Results are given in words; binding and its absence hold for the method and conditions named. Binding seen in cells or lysates may run through a third protein. A yes stands for co-enrichment or nearness to the bait. Other partners may have been found.

Consider “N-ethylmaleimide-sensitive fusion ATPase (NSF), endogenous in mouse brain and cultured mouse cortical neurons (from UniProt P46460 1-744)”, for which the binding entry is reported as “binds”.
